Patent US8815772B2, “Fungicidal heterocyclic carboxamides” (E I du Pont de Nemours and Company, priority 2012, dated 2014)
Some of these results come from one statement about several compounds together.

Tested on: southern root-knot nematode (Meloidogyne incognita)
Assay: Test I: control of southern root-knot nematode, soil application, root gall formation on cucumber seedlings
Format: in vivo
Conditions: 250 ppm active ingredient applied to soil, about 250 J2 larvae, 27° C., 7 days

SMILES	reduction in root galling, compared to solvent-treated controls (good levels of plant protection)
O=C(NCC(F)(F)c1ccc(-n2ccc(C(F)(F)F)n2)cc1Cl)c1ncccc1C(F)(F)F [Compound 150, N-[2-[2-chloro-4-[3-(trifluoromethyl)-1H-pyrazol-1-yl]phenyl]-2,2-difluoroethyl]-3-(trifluoromethyl)-2-pyridinecarboxamide]	≥ 50%
O=C(NCCc1ccc(-n2ccc(C(F)(F)F)n2)cc1)c1ccccc1C(F)(F)F [Compound 5, 2-(trifluoromethyl)-N-[2-[4-[3-(trifluoromethyl)-1H-pyrazol-1-yl]phenyl]ethyl]benzamide]	≥ 50%
O=C(NCCc1ccc(-n2ccc(C(F)(F)F)n2)cc1Cl)c1ncccc1C(F)(F)F [Compound 40, N-[2-[2-chloro-4-[3-(trifluoromethyl)-1H-pyrazol-1-yl]phenyl]ethyl]-3-(trifluoromethyl)-2-pyridinecarboxamide]	≥ 50%
